Assay results taken from article PMC11915802.
Results are given in words; binding and its absence hold for the method and conditions named. In cells and extracts the contact can be indirect. Sequences can lack the tags named with a protein.

Sequences of proteins named here, by UniProt entry; tags and fusion partners are left off.
UniProt O15393: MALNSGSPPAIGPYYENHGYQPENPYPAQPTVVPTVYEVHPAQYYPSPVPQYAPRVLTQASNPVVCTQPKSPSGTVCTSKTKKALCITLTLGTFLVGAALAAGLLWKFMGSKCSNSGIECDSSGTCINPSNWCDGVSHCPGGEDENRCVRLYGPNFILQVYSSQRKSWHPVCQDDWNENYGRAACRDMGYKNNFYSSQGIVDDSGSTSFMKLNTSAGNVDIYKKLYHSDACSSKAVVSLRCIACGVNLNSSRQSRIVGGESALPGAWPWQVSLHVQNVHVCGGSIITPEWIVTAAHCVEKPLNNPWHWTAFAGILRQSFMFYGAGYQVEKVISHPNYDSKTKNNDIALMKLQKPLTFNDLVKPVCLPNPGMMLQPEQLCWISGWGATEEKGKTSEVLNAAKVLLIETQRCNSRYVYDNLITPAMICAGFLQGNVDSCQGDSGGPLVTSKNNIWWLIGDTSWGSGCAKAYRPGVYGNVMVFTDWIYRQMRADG

Target: flag-tagged transmembrane protease serine 2 (TMPRSS2) (UniProt O15393)
Assay: co-IP; 293T cells co-transfected with the indicated plasmids for 24 h; lysed in RIPA buffer (150 mM NaCl, 1% NP40, 20 mM Tris-HCl, 1 mM EDTA, pH 7.4, 0.25% sodium deoxycholate); lysate incubated with Flag antibody overnight at 4°C, Protein A/G plus agarose beads 2 h at 4°C; western blot

B1: myc-tagged phospholipid scramblase 1 (PLSCR1) (protein, UniProt O15162 1-318)
chain: MDKQNSQMNASHPETNLPVGYPPQYPPTAFQGPPGYSGYPGPQVSYPPPPAGHSGPGPAGFPVPNQPVYNQPVYNQPVGAAGVPWMPAPQPPLNCPPGLEYLSQIDQILIHQQIELLEVLTGFETNNKYEIKNSFGQRVYFAAEDTDCCTRNCCGPSRPFTLRIIDNMGQEVITLERPLRCSSCCCPCCLQEIEIQAPPGVPIGYVIQTWHPCLPKFTIQNEKREDVLKISGPCVVCSCCGDVDFEIKSLDEQCVVGKISKHWTGILREAFTDADNFGIQFPLDLDVKMKAVMIGACFLIDFMFFESTGSQEQKSGVW
binding: no binding
